We go through 78 compounds from publication PMC12040169 (PLOS Biology, 2025).

This is one part of the list.

The assay has as its system T1, CTL2-GFP (C. trachomatis L2/434/Bu, GFP-expressing).
T1 construct: L2/434/Bu, GFP-expressing
More on the design: species or system HeLa; Intracellular C. trachomatis growth in HeLa cells, bulk GFP fluorescence relative to DMSO. Conditions: bulk GFP, single well; 28.5 h, 10 µM; inhibitor.
On to `CCOC(=O)C(=O)N(C)c1c(CC)nc2c(OCc3ccccc3)cccn12` [CBK147879], for which the “% of control remaining” value is 186.637%.

With `O=C(Cn1c(-c2cncs2)nc2ccccc21)Nc1ccc(C(=O)N2CCCCC2)cc1` [CBK269439], the “% of control remaining” value is reported as 156.676%. Regarding `O=C(CSc1ccc(Cl)cc1)Nc1cccc(-c2nc3ncccc3o2)c1` [CBK264989], the “% of control remaining” value is 99.8796%.

On to `C=CCN(C)C(=O)[C@H]1C[C@@H](O)[C@H](O)[C@@H]2N=C(Nc3ccc(OC)cc3)S[C@@H]21` [CBK288947], for which the “% of control remaining” value stood at 124.6%. Next, `Cc1cccc(Cl)c1OCC(O)CNCCc1ccccc1` (stereo not drawn) [CBK003076]: 116.138%; `COc1cc(Nc2cc(-c3ccco3)ncn2)cc(OC)c1OC` [CBK090706]: 110.859%; `C#CCOC(=O)Nc1cnc(N2CCOCC2)c(C(F)(F)F)c1` [CBK019679]: 168.572%. Under `Cc1ccc(N2CCN(C3=NC(=O)/C(=C\c4ccc(O)c([N+](=O)[O-])c4)S3)CC2)cc1` [CBK264347] stands 100%; under `O=C(CN1C(=O)[C@@H]2CCCN2c2ncccc21)NC(c1ccccc1)c1ccccc1` [CBK286205], 98.1948%; under `CC(Nc1nc(-c2ccc([N+](=O)[O-])cc2)nc2ccccc12)c1ccccc1` (stereo not drawn) [CBK264767], 100%. Under `O=C(Cc1cc(Cl)ccc1C(F)(F)F)NCCc1c[nH]c2ccc(Cl)cc12` [CBK159759] stands 56.5377%.

With `O=C(O)C1C2CCC(O2)C1C(=O)Nc1ccc2c(c1)OCCO2` (stereo not drawn) [CBK263677], the “% of control remaining” value was determined as 107.287%. For `CC(=O)N1CCC[C@H]2NC(=O)CNC(=O)C3(C/C=C/C[C@H]21)CCN(CC1CCC1)CC3` [CBK292129], the “% of control remaining” value was 145.12%. Next, `COc1ccc(S(=O)(=O)NCCNC(=O)c2cc(-c3cccnc3)cnc2NCc2ccc3c(c2)OCO3)cc1` [CBK076379]: 112.503%; `C1=CC2CC1CC2CN1CCN(Cc2cccnc2)CC1` (stereo not drawn) [CBK027284]: 151.051%; `CCOC(=O)c1c(C)nc2ccccc2c1O` [CBK153666]: 111.205%.

As to `CC(C)Nc1nc2ccccc2nc1SCCN(C)C` [CBK103672], the “% of control remaining” value came out at 86.7198%. Under `CCc1nn(CC(=O)N(C)C)c(=O)c2cc3sc(C)cc3n12` [CBK284102] stands 82.8915%. Turning to `CCCn1c(C)cc2cc(NC(=O)Cn3cc(C)nn3)ccc21` [CBK281548], the “% of control remaining” value is given as 96.2909%. Under `CN1CCN(c2ccc(-c3ccc(Cl)cc3)cn2)CC1` [CBK036945] stands 149.076%. For the compound `Cl.Nc1ncc([C@@H]2O[C@H](CO)[C@H](O)C2O)c(=O)[nH]1` (stereo partly drawn) [CBK201205], the “% of control remaining” value is recorded as 163.863%. In the case of `COCCNc1nc(-c2cncc(OC)c2)cnc1N` [CBK063606], the “% of control remaining” value amounted to 141.366%. Turning to `COc1cc(CN2CCC3(CC2)CN(CC(N)=O)c2ccccc23)cc(OC)c1OC` [CBK126774], the “% of control remaining” value was found to be 115.72%. Under `N#CCCCN1CCC(Oc2nccnc2OCC2COc3ccccc3O2)CC1` (stereo not drawn) [CBK082994T] stands 112.457%; under `O=C(O)C[C@@H]1CCN(C(=O)c2ccco2)C[C@@H]1CC1=NCCc2cc(F)ccc21` [CBK289166], 129.327%.

With `O=C(NCc1ccccc1)c1ccc(NC(=O)c2cc(-n3cnnc3)ccc2Cl)cc1` [CBK267896], the “% of control remaining” value turned out to be 121.335%. Under `Oc1ccc(/C=C/c2nc(-c3ccccc3O)n(-c3ccccc3)n2)cc1` [CBK265289] stands 116.287%. `O=C1CC(c2ccco2)Cc2c1cnn2-c1nc2ccccc2s1` (stereo not drawn) [CBK269292]: the “% of control remaining” value worked out at 157.706%.

As to `CC1=NN(c2nc(-c3cccc([N+](=O)[O-])c3)cs2)C(=O)C1/N=N/c1ccc(S(N)(=O)=O)cc1` (stereo not drawn) [CBK262434], the “% of control remaining” value is 128.507%. Under `Cc1ccc2c(c1)OC(C)(C)CC2NS(C)(=O)=O` (stereo not drawn) [CBK307620] stands 133.099%.

As to `CN(C)CCCNC(=O)c1ccc(/C=N/O)[n+](C)c1` [CBK278284I], the “% of control remaining” value amounted to 100%.

Take `CCCN1CCC(N2CCN(c3ccc([N+](=O)[O-])cc3)CC2)CC1` [CBK018459]: the “% of control remaining” value was 105.71%.

`Cc1oc2cc(OCC(=O)NCC(=O)O)ccc2c(=O)c1-c1ccc(Cl)cc1` [CBK286697]: the “% of control remaining” value worked out at 112.633%. Next, `CC(C)(C)c1ccc(NC(=O)N(CCN)Cc2c[nH]c(-c3ccccc3)n2)cc1` [CBK046297C]: 20.8611%; `C[C@@H]1C(=O)O[C@H]2[C@H]1CC[C@@]1(C)Cc3sc(NC(=O)CCC(=O)O)nc3[C@@H](C)[C@H]21` [CBK289429]: 117.67%. Next, `CCn1nc(CC(C)C)cc1C(=O)NCCc1cn2cccnc2n1` [CBK306553]: 142.96%; `Cc1cc(C)n(C(CC(=O)N2CCCCC2)C(=O)O)n1` (stereo not drawn) [CBK286806]: 135.694%; `Cc1cc(OCC(O)CN2CCN(CCO)CC2)ccc1C(C)C` (stereo not drawn) [CBK278254C]: 125.714%. Under `CCOc1ccc(S(=O)(=O)NCCOC)cc1Cl` [CBK270251] stands 146.596%; under `Fc1ccc(-c2cc(Nc3ccccc3)ncn2)cc1F` [CBK090913], 99.9828%; under `CN1CCCN(C(=O)c2ccc(-c3nc(-c4ccc(C#N)cc4)cnc3N)cc2)CC1` [CBK107140], 76.3373%. As for `N#CCCn1cc(C(N)=O)c(-c2cc3ccccc3o2)n1` [CBK306204], the “% of control remaining” value turned out to be 102.962%.

On to `O=C(NC(c1ccccc1)c1ccccc1)C1(c2ccccc2)CCCC1` [CBK149536], for which the “% of control remaining” value is 114.378%. Under `Cc1ccc(S(=O)(=O)NCCn2nc(C)c(C)c2C)s1` [CBK281502] stands 157.748%.

As for `Cc1nonc1NC(=O)CSc1nc2ccccc2[nH]1` [CBK269273], the “% of control remaining” value is 104.745%. Next, `Fc1ccccc1CCOc1cncc(Cl)n1` [CBK176038]: 109.44%; `N=c1n(CCCOc2ccccc2Cl)c2ccccc2n1CC(N)=O` [CBK268927C]: 106.098%; `CS(=O)(=O)Nc1ccc(-c2cc(F)cc(F)c2)c2ccccc12` [CBK083743]: 107.164%. Next, `COC(=O)c1ccccc1N1C(=O)c2cccc([N+](=O)[O-])c2C1=O` [CBK115382]: 116.657%; `CCOc1ccc2[nH]c(C(=O)NC3CCCOC3)c(C)c2c1` (stereo not drawn) [CBK282529]: 120.618%. Next, `N=C1OC2CSCC2N1C(=O)C1(c2ccccc2)CC1` (stereo not drawn) [CBK284524]: 169.453%. As to `O=C1COc2ccccc2CCCCC2(CCCN(CC(=O)N3CCCC3)C2)CN1` (stereo not drawn) [CBK292009], the “% of control remaining” value stood at 132.116%. With `Cc1ccn(CCNC(=O)C(C)Cc2cccs2)n1` (stereo not drawn) [CBK281625], the “% of control remaining” value is given as 96.268%.

For the compound `COc1cc(-c2cncc(Nc3ccc4c(c3)OC(F)(F)C(F)(F)O4)n2)cc(OC)c1OC` [CBK065138], the “% of control remaining” value is 123.218%. Under `Cn1ccnc1C1(O)CC2CCC(C1)N2C(=O)NCc1ccccc1` (stereo not drawn) [CBK284050] stands 140.264%; under `c1ccc(COc2ccccc2CNCCN2CCOCC2)cc1` [CBK278212C], 140.023%; under `FC(F)(F)c1ccccc1/C=N/n1c(S)nnc1COc1ccccc1` [CBK265260], 123.486%.

As to `OCCN(CCO)c1cncc(-c2ccc(Cl)cc2)n1` [CBK065748], the “% of control remaining” value came to 173.228%. As to `O=C(O)c1cc(Nc2nc(N3CCOCC3)nc(N3CCOCC3)n2)ccc1Cl` [CBK268081], the “% of control remaining” value is 105.304%. Next, `Cc1nc(NCc2ccc(C(F)(F)F)cc2)nc(N2CCN(C)CC2)n1` [CBK023866]: 108.448%. Under `CN(CC#CCN1CCCC1)C(=O)CNC(=O)OC(C)(C)C` [CBK007489] stands 104.322%. Under `Cc1cn(C(C)(C)C(=O)N2CCOCC2)nc1-c1ccccc1Cl` [CBK005206] stands 142.48%; under `O=C(O)C1CC=CCC1C(=O)NCc1ccc2c(c1)OCO2` (stereo not drawn) [CBK264209], 131.219%.

Regarding `Cc1cc(=O)oc2cc(OCC(=O)Nc3cccc(C(=O)O)c3)ccc12` [CBK287058], the “% of control remaining” value is listed as 139.944%. As to `Cc1ccc2nc(CNC(=O)CN(C)C3CCNCC3)cn2c1` [CBK307228], the “% of control remaining” value is 84.5703%. Under `COc1ccc(SCC(=O)Nc2nccs2)cc1` [CBK287751] stands 132.54%; under `N#CC(C(=O)NC1CCCCC1)C(=O)c1nn(-c2ccccc2)c2c1CSc1ccccc1-2` (stereo not drawn) [CBK017690], 109.275%; under `CC(Oc1ccccc1)C(=O)NCCN1CCOCC1` (stereo not drawn) [CBK263812], 103.292%. Under `Cc1ccc(C(=O)C(OC(=O)CN2C(=O)c3cccc([N+](=O)[O-])c3C2=O)c2ccccc2)cc1C` (stereo not drawn) [CBK265519] stands 117.461%; under `COCC(=O)N1C[C@@H](c2ccc(F)c(F)c2)[C@@]2(CCCC(=O)N2)C1` [CBK283358], 91.0862%.

`O=C(CC(Nc1ccc2ccccc2c1)c1ccncc1)c1ccc(Br)cc1` (stereo not drawn) [CBK262209]: the “% of control remaining” value is given as 88.702%. Under `CC(C)NC(=O)Cn1c(=O)n(Cc2cccs2)c2ncccc21` [CBK283900] stands 134.25%. With `CC(NC(=O)C1CCN(Cc2nccs2)CC1)c1ccc(F)cc1` (stereo not drawn) [CBK148056], the “% of control remaining” value amounted to 161.554%. Under `CN(C)c1ccc(Nc2cc(-c3ccc(OCc4ccccc4)cc3)ncn2)cc1` [CBK090941] stands 94.2118%. Next, `O=C(Nc1ccccc1[N+](=O)[O-])c1cc(S(=O)(=O)NCc2ccco2)ccc1Cl` [CBK264557]: 108.429%; `COc1ccc(CCNC(=O)N2CCC(C(=O)O)CC2)cc1` [CBK156073]: 66.6676%. Under `CC(CCCC(C)(C)O)NCCO` (stereo not drawn) [CBK262340] stands 85.1771%; under `COc1cccc2ncn(CCNS(C)(=O)=O)c(=O)c12` [CBK306583], 159.295%.
